Assay results from paper PMC12456051.
No constants are given. Whether binding was seen depends on the method and setting. In cells and extracts the contact can be indirect. Some results given as binding are weak or reduced against the parent protein; the word gives no strength.

The chains behind the UniProt entries cited, without tags or fusion partners.
UniProt P11142: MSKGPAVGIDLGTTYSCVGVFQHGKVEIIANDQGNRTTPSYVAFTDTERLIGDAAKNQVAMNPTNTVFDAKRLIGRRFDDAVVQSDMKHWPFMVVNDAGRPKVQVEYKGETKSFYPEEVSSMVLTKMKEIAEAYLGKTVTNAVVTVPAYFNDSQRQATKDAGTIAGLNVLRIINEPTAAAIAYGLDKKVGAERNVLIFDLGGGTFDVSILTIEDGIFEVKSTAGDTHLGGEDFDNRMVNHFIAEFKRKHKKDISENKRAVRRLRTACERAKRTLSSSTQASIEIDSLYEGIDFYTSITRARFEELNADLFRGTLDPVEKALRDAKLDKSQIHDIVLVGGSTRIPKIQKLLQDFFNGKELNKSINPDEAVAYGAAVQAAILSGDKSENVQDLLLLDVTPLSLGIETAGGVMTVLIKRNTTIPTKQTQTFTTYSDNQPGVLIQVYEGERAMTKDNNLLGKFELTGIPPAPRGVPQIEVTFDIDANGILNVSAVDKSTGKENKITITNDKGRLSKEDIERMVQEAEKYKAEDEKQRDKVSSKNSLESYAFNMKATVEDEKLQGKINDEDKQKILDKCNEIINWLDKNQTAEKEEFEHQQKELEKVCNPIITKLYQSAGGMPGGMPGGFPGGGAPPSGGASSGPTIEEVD
UniProt O14964: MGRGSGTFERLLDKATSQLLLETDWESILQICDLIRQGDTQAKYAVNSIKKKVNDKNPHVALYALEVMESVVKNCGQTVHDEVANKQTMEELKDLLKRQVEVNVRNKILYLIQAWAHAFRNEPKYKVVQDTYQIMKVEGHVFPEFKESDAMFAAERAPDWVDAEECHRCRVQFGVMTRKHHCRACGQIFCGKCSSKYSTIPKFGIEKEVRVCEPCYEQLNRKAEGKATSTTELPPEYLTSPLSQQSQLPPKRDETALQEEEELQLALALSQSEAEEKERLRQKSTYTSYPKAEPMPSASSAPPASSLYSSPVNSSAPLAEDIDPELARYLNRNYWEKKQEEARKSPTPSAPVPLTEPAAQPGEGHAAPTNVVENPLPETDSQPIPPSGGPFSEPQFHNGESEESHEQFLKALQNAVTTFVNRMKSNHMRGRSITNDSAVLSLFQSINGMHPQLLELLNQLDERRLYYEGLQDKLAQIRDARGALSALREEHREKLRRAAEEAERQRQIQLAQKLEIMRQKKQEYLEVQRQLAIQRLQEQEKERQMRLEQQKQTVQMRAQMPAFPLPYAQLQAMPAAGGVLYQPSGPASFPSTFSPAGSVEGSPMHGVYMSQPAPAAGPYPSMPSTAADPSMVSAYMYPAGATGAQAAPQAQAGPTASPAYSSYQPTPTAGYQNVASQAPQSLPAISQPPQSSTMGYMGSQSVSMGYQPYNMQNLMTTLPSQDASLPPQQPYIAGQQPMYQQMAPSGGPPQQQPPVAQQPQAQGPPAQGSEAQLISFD

Target: heat shock cognate protein 70 (human (endogenous in HeLa)) (UniProt P11142)
Assay: co-IP; with and without HRS overexpression; pulled down by HSC70 (supplementary Figure S5E) or by Cas9 (supplementary Figure S5F); cells not told in the text shown

hepatocyte growth factor-regulated tyrosine kinase substrate (from UniProt O14964 1-777)
binding: binds
